From the supplement of paper PMC10849652
The other results are listed elsewhere or left out.

By UniProt entry, the sequences of proteins in these tests, tags left out. Where a name states a change or a piece, a line headed by the entry shows the natural chain unless it says otherwise.
UniProt O15228: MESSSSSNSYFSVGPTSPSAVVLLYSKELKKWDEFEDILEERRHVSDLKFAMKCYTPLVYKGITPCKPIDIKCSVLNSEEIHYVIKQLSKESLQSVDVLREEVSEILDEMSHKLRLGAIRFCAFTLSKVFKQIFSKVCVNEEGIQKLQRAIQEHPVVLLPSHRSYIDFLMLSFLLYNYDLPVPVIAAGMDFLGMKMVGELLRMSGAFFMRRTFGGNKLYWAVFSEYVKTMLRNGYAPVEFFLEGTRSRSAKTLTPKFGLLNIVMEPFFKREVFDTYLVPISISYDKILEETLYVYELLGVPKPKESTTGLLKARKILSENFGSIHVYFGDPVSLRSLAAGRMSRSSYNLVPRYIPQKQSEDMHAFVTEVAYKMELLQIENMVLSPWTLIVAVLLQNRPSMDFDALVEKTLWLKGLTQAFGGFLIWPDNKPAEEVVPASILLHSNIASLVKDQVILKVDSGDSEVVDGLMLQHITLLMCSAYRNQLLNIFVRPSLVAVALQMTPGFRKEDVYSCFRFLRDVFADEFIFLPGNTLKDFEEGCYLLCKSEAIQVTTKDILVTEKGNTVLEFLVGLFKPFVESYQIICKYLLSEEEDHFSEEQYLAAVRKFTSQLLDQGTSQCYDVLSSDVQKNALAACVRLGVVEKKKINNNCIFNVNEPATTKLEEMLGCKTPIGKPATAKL
UniProt P15586: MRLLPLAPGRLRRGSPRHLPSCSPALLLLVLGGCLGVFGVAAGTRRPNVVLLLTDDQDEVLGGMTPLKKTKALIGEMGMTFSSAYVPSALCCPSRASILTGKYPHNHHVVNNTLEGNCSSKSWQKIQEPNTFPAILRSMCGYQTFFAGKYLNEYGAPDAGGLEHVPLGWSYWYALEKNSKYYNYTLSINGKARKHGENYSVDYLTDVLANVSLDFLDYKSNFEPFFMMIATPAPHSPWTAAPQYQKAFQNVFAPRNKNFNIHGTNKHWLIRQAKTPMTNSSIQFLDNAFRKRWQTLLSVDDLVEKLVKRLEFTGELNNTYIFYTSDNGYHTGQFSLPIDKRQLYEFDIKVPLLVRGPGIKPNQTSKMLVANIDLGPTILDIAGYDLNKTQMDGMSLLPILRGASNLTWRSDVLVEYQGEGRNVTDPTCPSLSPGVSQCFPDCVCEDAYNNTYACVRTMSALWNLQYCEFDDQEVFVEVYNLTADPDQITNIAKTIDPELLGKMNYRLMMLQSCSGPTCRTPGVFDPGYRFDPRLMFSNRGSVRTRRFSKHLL
UniProt Q9Y5P6: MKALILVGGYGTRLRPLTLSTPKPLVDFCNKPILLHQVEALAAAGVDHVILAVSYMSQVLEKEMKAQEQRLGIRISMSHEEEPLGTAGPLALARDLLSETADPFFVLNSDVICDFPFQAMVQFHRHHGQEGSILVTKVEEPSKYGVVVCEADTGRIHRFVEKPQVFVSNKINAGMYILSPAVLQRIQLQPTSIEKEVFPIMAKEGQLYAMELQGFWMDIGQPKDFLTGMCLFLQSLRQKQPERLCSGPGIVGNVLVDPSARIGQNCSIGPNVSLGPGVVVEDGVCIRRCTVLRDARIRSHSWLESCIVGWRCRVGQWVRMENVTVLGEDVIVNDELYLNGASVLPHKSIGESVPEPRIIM
UniProt Q9Y248: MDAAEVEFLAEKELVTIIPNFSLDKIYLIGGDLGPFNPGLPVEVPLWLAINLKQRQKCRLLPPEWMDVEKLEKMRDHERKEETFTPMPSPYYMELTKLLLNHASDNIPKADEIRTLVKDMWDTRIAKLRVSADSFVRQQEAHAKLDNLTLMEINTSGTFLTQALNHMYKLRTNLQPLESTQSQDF
UniProt O60234, whole entry, looked up: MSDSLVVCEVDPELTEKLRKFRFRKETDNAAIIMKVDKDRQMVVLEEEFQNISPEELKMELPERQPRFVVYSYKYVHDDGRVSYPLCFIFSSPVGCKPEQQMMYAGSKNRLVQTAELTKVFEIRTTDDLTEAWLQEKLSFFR
UniProt Q9NQX3: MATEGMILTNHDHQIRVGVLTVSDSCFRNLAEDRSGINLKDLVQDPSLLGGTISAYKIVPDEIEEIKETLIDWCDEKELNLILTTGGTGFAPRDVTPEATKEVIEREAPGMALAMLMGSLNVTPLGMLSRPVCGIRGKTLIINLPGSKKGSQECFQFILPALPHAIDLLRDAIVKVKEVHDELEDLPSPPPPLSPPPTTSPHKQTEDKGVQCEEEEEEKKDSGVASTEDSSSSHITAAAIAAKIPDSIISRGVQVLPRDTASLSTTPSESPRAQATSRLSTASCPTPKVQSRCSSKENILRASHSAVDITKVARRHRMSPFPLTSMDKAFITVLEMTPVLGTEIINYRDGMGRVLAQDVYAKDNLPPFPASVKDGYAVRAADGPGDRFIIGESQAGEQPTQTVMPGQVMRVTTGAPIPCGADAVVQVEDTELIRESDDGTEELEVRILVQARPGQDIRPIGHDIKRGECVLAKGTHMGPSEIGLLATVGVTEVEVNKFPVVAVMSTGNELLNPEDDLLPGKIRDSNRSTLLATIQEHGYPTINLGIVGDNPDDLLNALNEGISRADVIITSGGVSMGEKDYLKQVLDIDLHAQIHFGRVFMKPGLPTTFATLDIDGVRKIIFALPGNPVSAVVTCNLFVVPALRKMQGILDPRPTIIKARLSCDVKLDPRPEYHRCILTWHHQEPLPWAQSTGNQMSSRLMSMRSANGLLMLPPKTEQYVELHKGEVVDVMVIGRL
UniProt P50148, whole entry, looked up: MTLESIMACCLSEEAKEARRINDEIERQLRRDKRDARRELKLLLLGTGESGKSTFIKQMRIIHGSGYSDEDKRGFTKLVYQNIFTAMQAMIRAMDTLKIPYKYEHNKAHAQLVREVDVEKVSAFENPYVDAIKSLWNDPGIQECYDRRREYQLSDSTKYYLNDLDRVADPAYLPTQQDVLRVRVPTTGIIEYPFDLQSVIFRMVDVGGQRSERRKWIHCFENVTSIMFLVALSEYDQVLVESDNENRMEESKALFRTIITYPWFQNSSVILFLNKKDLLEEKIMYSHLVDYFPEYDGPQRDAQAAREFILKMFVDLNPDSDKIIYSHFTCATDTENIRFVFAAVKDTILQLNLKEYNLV
UniProt Q9NPB8: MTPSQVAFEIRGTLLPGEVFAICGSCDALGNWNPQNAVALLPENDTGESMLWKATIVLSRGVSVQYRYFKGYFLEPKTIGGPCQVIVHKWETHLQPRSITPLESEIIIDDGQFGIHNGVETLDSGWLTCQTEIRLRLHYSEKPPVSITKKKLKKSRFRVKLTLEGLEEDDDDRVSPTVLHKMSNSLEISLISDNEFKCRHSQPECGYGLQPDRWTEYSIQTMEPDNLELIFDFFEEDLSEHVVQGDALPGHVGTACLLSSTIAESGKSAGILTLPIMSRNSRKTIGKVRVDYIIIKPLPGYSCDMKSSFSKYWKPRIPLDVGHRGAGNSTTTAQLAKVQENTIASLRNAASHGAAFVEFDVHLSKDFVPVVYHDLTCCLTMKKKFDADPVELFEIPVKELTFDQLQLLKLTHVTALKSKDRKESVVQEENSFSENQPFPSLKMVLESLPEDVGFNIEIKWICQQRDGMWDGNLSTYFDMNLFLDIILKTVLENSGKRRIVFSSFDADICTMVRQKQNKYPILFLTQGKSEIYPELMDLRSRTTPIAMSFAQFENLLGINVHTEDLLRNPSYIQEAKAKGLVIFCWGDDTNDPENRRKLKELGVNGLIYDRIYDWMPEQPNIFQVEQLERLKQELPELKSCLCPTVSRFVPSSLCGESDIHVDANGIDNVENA
UniProt P06280: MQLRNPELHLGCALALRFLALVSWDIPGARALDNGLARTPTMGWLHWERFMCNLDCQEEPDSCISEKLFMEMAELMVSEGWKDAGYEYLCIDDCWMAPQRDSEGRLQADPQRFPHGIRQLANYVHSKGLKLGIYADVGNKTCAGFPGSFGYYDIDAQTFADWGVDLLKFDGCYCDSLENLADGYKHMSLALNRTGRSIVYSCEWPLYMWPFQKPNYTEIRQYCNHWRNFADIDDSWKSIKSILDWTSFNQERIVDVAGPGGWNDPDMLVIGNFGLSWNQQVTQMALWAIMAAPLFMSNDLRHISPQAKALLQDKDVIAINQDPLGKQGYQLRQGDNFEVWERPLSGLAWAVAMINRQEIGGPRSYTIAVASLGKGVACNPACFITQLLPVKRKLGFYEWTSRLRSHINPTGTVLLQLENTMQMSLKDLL
UniProt O95749: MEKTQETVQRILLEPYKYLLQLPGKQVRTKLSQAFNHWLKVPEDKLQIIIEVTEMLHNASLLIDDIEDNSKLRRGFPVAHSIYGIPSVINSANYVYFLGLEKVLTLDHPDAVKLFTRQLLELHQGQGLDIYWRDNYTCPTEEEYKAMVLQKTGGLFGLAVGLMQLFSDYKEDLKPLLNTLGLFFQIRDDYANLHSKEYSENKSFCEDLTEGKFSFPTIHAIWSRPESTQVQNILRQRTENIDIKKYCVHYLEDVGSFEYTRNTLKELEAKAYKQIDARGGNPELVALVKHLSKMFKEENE
UniProt Q9UJ14: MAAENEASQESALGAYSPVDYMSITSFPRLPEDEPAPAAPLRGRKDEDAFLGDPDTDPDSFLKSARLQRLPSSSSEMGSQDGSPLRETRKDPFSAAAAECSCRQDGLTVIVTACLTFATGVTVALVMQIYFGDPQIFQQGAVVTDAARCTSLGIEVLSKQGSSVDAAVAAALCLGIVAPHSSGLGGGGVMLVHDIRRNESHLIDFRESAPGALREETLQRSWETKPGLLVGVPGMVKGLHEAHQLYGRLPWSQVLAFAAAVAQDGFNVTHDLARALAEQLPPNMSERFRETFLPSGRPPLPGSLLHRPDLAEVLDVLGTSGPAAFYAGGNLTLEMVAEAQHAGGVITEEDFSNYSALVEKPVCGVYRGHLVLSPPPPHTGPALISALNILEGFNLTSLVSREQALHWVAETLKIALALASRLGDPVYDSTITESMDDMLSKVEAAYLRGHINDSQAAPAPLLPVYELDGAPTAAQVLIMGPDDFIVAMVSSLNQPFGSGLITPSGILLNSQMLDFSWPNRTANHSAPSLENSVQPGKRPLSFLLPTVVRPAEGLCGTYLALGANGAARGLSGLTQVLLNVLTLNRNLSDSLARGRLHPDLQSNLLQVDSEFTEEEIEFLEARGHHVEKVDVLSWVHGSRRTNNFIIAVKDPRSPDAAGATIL
UniProt Q13098: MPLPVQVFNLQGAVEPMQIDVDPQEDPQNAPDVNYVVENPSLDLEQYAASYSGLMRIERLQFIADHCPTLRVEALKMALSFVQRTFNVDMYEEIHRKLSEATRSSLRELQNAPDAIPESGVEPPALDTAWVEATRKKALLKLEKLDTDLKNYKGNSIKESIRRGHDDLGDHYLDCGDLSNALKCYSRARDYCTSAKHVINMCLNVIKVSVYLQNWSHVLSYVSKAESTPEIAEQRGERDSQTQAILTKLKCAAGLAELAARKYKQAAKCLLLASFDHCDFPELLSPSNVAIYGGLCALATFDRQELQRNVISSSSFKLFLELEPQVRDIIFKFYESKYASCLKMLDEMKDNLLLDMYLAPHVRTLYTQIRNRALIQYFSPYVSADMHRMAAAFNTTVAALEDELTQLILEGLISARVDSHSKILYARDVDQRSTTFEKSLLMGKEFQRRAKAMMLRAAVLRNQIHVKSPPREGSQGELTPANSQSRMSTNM
UniProt Q14161: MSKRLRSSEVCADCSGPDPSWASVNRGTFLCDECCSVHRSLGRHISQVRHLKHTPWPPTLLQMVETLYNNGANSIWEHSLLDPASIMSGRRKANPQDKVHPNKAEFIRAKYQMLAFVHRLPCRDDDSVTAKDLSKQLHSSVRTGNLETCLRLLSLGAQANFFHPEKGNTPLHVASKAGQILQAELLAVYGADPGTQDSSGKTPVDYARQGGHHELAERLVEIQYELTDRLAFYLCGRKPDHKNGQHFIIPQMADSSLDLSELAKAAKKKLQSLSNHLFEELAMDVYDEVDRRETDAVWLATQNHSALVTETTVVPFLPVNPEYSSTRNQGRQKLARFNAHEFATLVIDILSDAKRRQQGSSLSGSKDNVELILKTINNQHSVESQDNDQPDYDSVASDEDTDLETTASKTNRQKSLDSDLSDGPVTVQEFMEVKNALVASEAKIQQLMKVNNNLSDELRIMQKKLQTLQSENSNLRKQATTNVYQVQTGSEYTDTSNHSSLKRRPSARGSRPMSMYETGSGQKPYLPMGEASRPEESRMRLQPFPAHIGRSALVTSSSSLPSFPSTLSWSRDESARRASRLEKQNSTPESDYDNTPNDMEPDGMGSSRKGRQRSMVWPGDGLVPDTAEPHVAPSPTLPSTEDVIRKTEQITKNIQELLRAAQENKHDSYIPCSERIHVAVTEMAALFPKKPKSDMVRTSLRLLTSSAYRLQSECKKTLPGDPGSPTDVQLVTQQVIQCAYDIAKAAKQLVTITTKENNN
UniProt P63218: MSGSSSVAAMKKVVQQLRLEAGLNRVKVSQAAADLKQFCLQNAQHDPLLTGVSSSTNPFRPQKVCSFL

Legend:
Assay in all cases: log2 fold change, soluble protein after heating vs DMSO (PISA); higher = thermal stabilisation; K562 lysate, 10 uM; active = over 0.2 and 3.5 SD of the protein, either way, in both replicates (recomputed)
vemurafenib = compound: CCCS(=O)(=O)Nc1ccc(F)c(C(=O)c2c[nH]c3ncc(-c4ccc(Cl)cc4)cc23)c1F [vemurafenib]
Summary of the method: (§1)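 Thermal stability, expressed as log-two fold change relative to solvent controls, is given from duplicates. Crude K562 extract in PBS pH 7.4 with 1 mM MgCl2, at 1 mg/mL protein, was treated with 10 μM compound for 30 min and heated in aliquots for 3 min across 48°C-58°C. After pooling, adjustment to 0.5% NP-40 at 4°C and centrifugation at 21,000xg for 90 min, supernatant protein was measured by TMTpro 16plex LC-MS/MS with channel sums equalised.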

[1] = compound: CCCS(=O)(=O)Nc1ccc(F)c(C(=O)c2c[nH]c3ncc(Cl)cc23)c1F
Summary of the method: as §1

barasertib = compound: CCN(CCCOc1ccc2c(Nc3cc(CC(=O)Nc4cccc(F)c4)[nH]n3)ncnc2c1)CCOP(=O)(O)O [barasertib]
Summary of the method: as §1

[2] = compound: CC[C@@H]1C(=O)N(C)c2cnc(Nc3ccc(C(=O)NC4CCN(C)CC4)cc3OC)nc2N1C1CCCC1
Summary of the method: as §1

volasertib = compound: CC[C@@H]1C(=O)N(C)c2cnc(Nc3ccc(C(=O)N[C@H]4CC[C@H](N5CCN(CC6CC6)CC5)CC4)cc3OC)nc2N1C(C)C [volasertib]
Summary of the method: as §1

[3] = compound: CCn1c(C(=O)N(C2CC2)C2CC2)cc2c3c(ncn3C)c(Nc3cc(C)n(C)n3)nc21
Summary of the method: as §1

[4] = compound: CCn1cc(-c2ccnc3[nH]c(-c4cccc(CN(C)C)c4)cc23)c(-c2ccc(NC(=O)N(C)C)cc2)n1
Summary of the method: as §1

[5] = compound: CN1CCC(CNc2ccc3ncc(-c4cccc(OC(F)(F)F)c4)n3n2)CC1
Summary of the method: as §1

saracatinib = compound: CN1CCN(CCOc2cc(OC3CCOCC3)c3c(Nc4c(Cl)ccc5c4OCO5)ncnc3c2)CC1 [saracatinib]
Summary of the method: as §1

sotrastaurin = compound: CN1CCN(c2nc(C3=C(c4c[nH]c5ccccc45)C(=O)NC3=O)c3ccccc3n2)CC1 [sotrastaurin]
Summary of the method: as §1

alvocidib = compound: CN1CC[C@H](c2c(O)cc(O)c3c(=O)cc(-c4ccccc4Cl)oc23)[C@H](O)C1 [alvocidib]
Summary of the method: as §1

Tubastatin A = compound: CN1CCc2c(c3ccccc3n2Cc2ccc(C(=O)NO)cc2)C1 [Tubastatin A]
Summary of the method: as §1

[6] = compound: CNC(=O)C1=CC=CC=C1NC2=NC(=NC=C2Cl)NC3=C(C=C(C=C3)N4CCOCC4)OC
Summary of the method: as §1

defactinib = compound: CNC(=O)c1ccc(Nc2ncc(C(F)(F)F)c(NCc3nccnc3N(C)S(C)(=O)=O)n2)cc1 [defactinib]
Summary of the method: as §1

[7] = compound: CNc1nc(-c2ccc3c(N)n[nH]c3c2)cc(N2C[C@@H](C(=O)NC3CCCCC3)CC[C@H]2C)n1
Summary of the method: as §1

encorafenib = compound: COC(=O)N[C@@H](C)CNc1nccc(-c2cn(C(C)C)nc2-c2cc(Cl)cc(NS(C)(=O)=O)c2F)n1 [encorafenib]
Summary of the method: as §1

[8] = compound: COC(=O)[C@H](CCSC)NC(=O)C1=C(C=C(C=C1)NC[C@H](CS)N)C2=CC=CC=C2
Summary of the method: as §1

alisertib = compound: COc1cc(Nc2ncc3c(n2)-c2ccc(Cl)cc2C(c2c(F)cccc2OC)=NC3)ccc1C(=O)O [alisertib]
Summary of the method: as §1

[9] = compound: COc1cc2nc(-c3cc(F)ccc3O)nc(N[C@@H]3CNC[C@H]3C(C)(C)O)c2cc1OC
Summary of the method: as §1

gefitinib = compound: COc1cc2ncnc(Nc3ccc(F)c(Cl)c3)c2cc1OCCCN1CCOCC1 [gefitinib]
Summary of the method: as §1

Measured: log2 fold change

GNPAT (UniProt O15228)
inactive: vemurafenib 0.005 | [1] 0.043 | barasertib 0.102 | [2] 0.018 | volasertib 0.023 | [3] -0.003 | [4] -0.061 | [5] -0.062 | saracatinib 0.039 | sotrastaurin -0.04 | alvocidib 0.034 | Tubastatin A 0.034 | [6] 0.01 | defactinib 0.01 | [7] -0.012 | encorafenib 0.059 | [8] -0.041 | alisertib 0.044 | [9] -0.09 | gefitinib -0.052

GOLGB1 (UniProt Q14789)
inactive: vemurafenib -0.001 | [1] 0.003 | barasertib 0.004 | [2] 0.006 | volasertib 0.005 | [3] -0.007 | [4] 0.063 | [5] -0.037 | saracatinib 0.041 | sotrastaurin -0.012 | alvocidib 0.027 | Tubastatin A 0.014 | [6] 0.029 | defactinib 0.011 | [7] -0.002 | encorafenib 0.015 | [8] 0.041 | alisertib 0.029 | [9] -0.003 | gefitinib 0

GNS (UniProt P15586)
inactive: vemurafenib 0.004 | [1] 0.024 | barasertib -0.009 | [2] -0.015 | volasertib 0.016 | [3] 0.01 | [4] 0.061 | [5] 0.027 | saracatinib 0.016 | sotrastaurin -0.004 | alvocidib -0.022 | Tubastatin A 0.057 | [6] 0.012 | defactinib -0.038 | [7] 0 | encorafenib 0.007 | [8] -0.025 | alisertib 0 | [9] 0.001 | gefitinib -0.017

GPI (UniProt P06744)
inactive: vemurafenib -0.009 | [1] -0.022 | barasertib -0.043 | [2] -0.02 | volasertib 0.009 | [3] 0.024 | [4] -0.001 | [5] 0.037 | saracatinib -0.007 | sotrastaurin 0.013 | alvocidib 0.017 | Tubastatin A 0.028 | [6] -0.028 | defactinib -0.027 | [7] -0.073 | encorafenib -0.029 | [8] 0.001 | alisertib 0.011 | [9] -0.004 | gefitinib 0.001

GMPPB isoform 2 (UniProt Q9Y5P6)
inactive: vemurafenib 0.018 | [1] 0.053 | barasertib 0.005 | [2] -0.038 | volasertib -0.024 | [3] -0.038 | [4] -0.051 | [5] 0.018 | saracatinib 0.009 | sotrastaurin -0.008 | alvocidib -0.036 | Tubastatin A -0.02 | [6] 0.027 | defactinib 0.061 | [7] -0.006 | encorafenib -0.057 | [8] 0.144 | alisertib 0.014 | [9] -0.013 | gefitinib 0.051

GINS2 (UniProt Q9Y248)
inactive: vemurafenib -0.104 | [1] 0.008 | barasertib 0.012 | [2] -0.08 | volasertib 0.009 | [3] -0.009 | [4] 0.005 | [5] -0.016 | saracatinib 0.051 | sotrastaurin -0.046 | alvocidib 0.044 | Tubastatin A 0.089 | [6] -0.007 | defactinib 0.095 | [7] 0.001 | encorafenib 0.114 | [8] 0.025 | alisertib 0.039 | [9] -0.027 | gefitinib -0.078

GMFG (UniProt O60234)
inactive: vemurafenib -0.057 | [1] -0.016 | barasertib 0.043 | [2] 0.009 | volasertib 0.016 | [3] 0.086 | [4] -0.01 | [5] 0.04 | saracatinib -0.013 | sotrastaurin -0.017 | alvocidib 0.037 | Tubastatin A -0.065 | [6] 0.026 | defactinib 0.002 | [7] -0.049 | encorafenib 0.014 | [8] -0.036 | alisertib 0.048 | [9] 0.004 | gefitinib -0.043

GPHN isoform 2 (UniProt Q9NQX3)
inactive: vemurafenib -0.011 | [1] 0.014 | barasertib -0.008 | [2] 0.022 | volasertib 0.014 | [3] 0.011 | [4] -0.02 | [5] 0.054 | saracatinib 0.011 | sotrastaurin 0.008 | alvocidib 0.001 | Tubastatin A 0.041 | [6] 0.022 | defactinib 0.037 | [7] -0.005 | encorafenib 0.027 | [8] -0.005 | alisertib -0.009 | [9] -0.005 | gefitinib 0.005

GNAQ (UniProt P50148)
inactive: vemurafenib -0.061 | [1] 0.007 | barasertib -0.008 | [2] -0.064 | volasertib -0.027 | [3] -0.053 | [4] -0.017 | [5] 0.024 | saracatinib 0.006 | sotrastaurin 0.1 | alvocidib 0.009 | Tubastatin A -0.014 | [6] 0.015 | defactinib 0.026 | [7] -0.064 | encorafenib -0.038 | [8] 0.028 | alisertib -0.081 | [9] -0.008 | gefitinib 0.072

GPCPD1 (UniProt Q9NPB8)
inactive: vemurafenib 0.023 | [1] 0.038 | barasertib 0.013 | [2] -0.05 | volasertib -0.048 | [3] 0 | [4] -0.046 | [5] -0.016 | saracatinib 0 | sotrastaurin -0.014 | alvocidib -0.016 | Tubastatin A -0.046 | [6] 0.008 | defactinib 0.002 | [7] -0.014 | encorafenib -0.057 | [8] 0.086 | alisertib 0.003 | [9] -0.005 | gefitinib -0.003

Quoted from the listing (three entries):
GMFG (UniProt O60234)
inactive: vemurafenib -0.057 | [1] -0.016 | barasertib 0.043 | [2] 0.009 | volasertib 0.016 | [3] 0.086 | [4] -0.01 | [5] 0.04 | saracatinib -0.013 | sotrastaurin -0.017 | alvocidib 0.037 | Tubastatin A -0.065 | [6] 0.026 | defactinib 0.002 | [7] -0.049 | encorafenib 0.014 | [8] -0.036 | alisertib 0.048 | [9] 0.004 | gefitinib -0.043

GPHN isoform 2 (UniProt Q9NQX3)
inactive: vemurafenib -0.011 | [1] 0.014 | barasertib -0.008 | [2] 0.022 | volasertib 0.014 | [3] 0.011 | [4] -0.02 | [5] 0.054 | saracatinib 0.011 | sotrastaurin 0.008 | alvocidib 0.001 | Tubastatin A 0.041 | [6] 0.022 | defactinib 0.037 | [7] -0.005 | encorafenib 0.027 | [8] -0.005 | alisertib -0.009 | [9] -0.005 | gefitinib 0.005

GNAQ (UniProt P50148)
inactive: vemurafenib -0.061 | [1] 0.007 | barasertib -0.008 | [2] -0.064 | volasertib -0.027 | [3] -0.053 | [4] -0.017 | [5] 0.024 | saracatinib 0.006 | sotrastaurin 0.1 | alvocidib 0.009 | Tubastatin A -0.014 | [6] 0.015 | defactinib 0.026 | [7] -0.064 | encorafenib -0.038 | [8] 0.028 | alisertib -0.081 | [9] -0.008 | gefitinib 0.072

Next part:

GLA (UniProt P06280)
inactive: vemurafenib -0.001 | [1] 0.014 | barasertib -0.069 | [2] -0.171 | volasertib -0.026 | [3] 0.013 | [4] -0.07 | [5] 0.042 | saracatinib 0.029 | sotrastaurin 0.004 | alvocidib -0.008 | Tubastatin A 0.003 | [6] 0.027 | defactinib 0.019 | [7] 0.03 | encorafenib -0.048 | [8] 0.005 | alisertib -0.024 | [9] 0.022 | gefitinib -0.015

GGPS1 (UniProt O95749)
inactive: vemurafenib 0.047 | [1] -0.013 | barasertib -0.039 | [2] -0.004 | volasertib -0.016 | [3] -0.022 | [4] 0.021 | [5] -0.034 | saracatinib -0.019 | sotrastaurin -0.004 | alvocidib 0.013 | Tubastatin A 0.054 | [6] 0.007 | defactinib -0.007 | [7] 0.007 | encorafenib -0.017 | [8] -0.044 | alisertib 0.02 | [9] 0.002 | gefitinib -0.011

GGT7 (UniProt Q9UJ14)
inactive: vemurafenib 0.003 | [1] 0.029 | barasertib 0.007 | [2] 0.037 | volasertib -0.014 | [3] -0.014 | [4] -0.003 | [5] 0.027 | saracatinib 0.097 | sotrastaurin 0.032 | alvocidib -0.013 | Tubastatin A 0.076 | [6] 0.008 | defactinib 0.066 | [7] 0.079 | encorafenib 0.078 | [8] -0.065 | alisertib -0.015 | [9] 0.044 | gefitinib 0.055

GPS1 isoform 6 (UniProt Q13098)
inactive: vemurafenib 0.019 | [1] -0.014 | barasertib -0.024 | [2] -0.009 | volasertib -0.017 | [3] -0.001 | [4] -0.043 | [5] 0.05 | saracatinib 0.014 | sotrastaurin 0.015 | alvocidib -0.043 | Tubastatin A -0.014 | [6] -0.042 | defactinib 0 | [7] -0.047 | encorafenib 0.035 | [8] -0.016 | alisertib -0.035 | [9] 0.024 | gefitinib 0

GIT2 (UniProt Q14161)
inactive: vemurafenib 0.047 | [1] 0.048 | barasertib 0.043 | [2] -0.267 | volasertib -0.012 | [3] 0.053 | [4] -0.042 | [5] -0.009 | saracatinib -0.032 | sotrastaurin 0.042 | alvocidib 0.019 | Tubastatin A -0.083 | [6] -0.007 | defactinib 0 | [7] 0.059 | encorafenib 0.055 | [8] -0.001 | alisertib 0.001 | [9] 0.021 | gefitinib 0.008

GNG5 (UniProt P63218)
inactive: vemurafenib 0.019 | [1] -0.014 | barasertib 0.195 | [2] -0.072 | volasertib 0.046 | [3] 0.062 | [4] 0.08 | [5] -0.097 | saracatinib 0.041 | sotrastaurin -0.067 | alvocidib 0.216 | Tubastatin A 0.062 | [6] 0.052 | defactinib 0.124 | [7] -0.018 | encorafenib 0.041 | [8] -0.063 | alisertib -0.049 | [9] -0.026 | gefitinib -0.101
